Experimental data from paper PMC9260857.
No constants are given. Whether binding was seen depends on the method and setting. Binding seen in cells or lysates may run through a third protein. Some results given as binding are weak or reduced against the parent protein; the word gives no strength.

Chains of the proteins cited; added tags and fusions are not shown.
UniProt Q91V45: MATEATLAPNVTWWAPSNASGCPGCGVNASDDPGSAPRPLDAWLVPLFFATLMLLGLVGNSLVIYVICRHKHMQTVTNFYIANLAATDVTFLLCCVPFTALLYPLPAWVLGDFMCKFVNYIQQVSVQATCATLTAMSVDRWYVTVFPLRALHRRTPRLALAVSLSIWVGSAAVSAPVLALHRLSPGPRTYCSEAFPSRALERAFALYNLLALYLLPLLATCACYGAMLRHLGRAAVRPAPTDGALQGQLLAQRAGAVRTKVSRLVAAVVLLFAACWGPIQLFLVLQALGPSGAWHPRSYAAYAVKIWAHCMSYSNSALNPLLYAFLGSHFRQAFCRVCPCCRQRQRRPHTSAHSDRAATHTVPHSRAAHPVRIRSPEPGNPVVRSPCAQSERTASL
UniProt A0A140LI88: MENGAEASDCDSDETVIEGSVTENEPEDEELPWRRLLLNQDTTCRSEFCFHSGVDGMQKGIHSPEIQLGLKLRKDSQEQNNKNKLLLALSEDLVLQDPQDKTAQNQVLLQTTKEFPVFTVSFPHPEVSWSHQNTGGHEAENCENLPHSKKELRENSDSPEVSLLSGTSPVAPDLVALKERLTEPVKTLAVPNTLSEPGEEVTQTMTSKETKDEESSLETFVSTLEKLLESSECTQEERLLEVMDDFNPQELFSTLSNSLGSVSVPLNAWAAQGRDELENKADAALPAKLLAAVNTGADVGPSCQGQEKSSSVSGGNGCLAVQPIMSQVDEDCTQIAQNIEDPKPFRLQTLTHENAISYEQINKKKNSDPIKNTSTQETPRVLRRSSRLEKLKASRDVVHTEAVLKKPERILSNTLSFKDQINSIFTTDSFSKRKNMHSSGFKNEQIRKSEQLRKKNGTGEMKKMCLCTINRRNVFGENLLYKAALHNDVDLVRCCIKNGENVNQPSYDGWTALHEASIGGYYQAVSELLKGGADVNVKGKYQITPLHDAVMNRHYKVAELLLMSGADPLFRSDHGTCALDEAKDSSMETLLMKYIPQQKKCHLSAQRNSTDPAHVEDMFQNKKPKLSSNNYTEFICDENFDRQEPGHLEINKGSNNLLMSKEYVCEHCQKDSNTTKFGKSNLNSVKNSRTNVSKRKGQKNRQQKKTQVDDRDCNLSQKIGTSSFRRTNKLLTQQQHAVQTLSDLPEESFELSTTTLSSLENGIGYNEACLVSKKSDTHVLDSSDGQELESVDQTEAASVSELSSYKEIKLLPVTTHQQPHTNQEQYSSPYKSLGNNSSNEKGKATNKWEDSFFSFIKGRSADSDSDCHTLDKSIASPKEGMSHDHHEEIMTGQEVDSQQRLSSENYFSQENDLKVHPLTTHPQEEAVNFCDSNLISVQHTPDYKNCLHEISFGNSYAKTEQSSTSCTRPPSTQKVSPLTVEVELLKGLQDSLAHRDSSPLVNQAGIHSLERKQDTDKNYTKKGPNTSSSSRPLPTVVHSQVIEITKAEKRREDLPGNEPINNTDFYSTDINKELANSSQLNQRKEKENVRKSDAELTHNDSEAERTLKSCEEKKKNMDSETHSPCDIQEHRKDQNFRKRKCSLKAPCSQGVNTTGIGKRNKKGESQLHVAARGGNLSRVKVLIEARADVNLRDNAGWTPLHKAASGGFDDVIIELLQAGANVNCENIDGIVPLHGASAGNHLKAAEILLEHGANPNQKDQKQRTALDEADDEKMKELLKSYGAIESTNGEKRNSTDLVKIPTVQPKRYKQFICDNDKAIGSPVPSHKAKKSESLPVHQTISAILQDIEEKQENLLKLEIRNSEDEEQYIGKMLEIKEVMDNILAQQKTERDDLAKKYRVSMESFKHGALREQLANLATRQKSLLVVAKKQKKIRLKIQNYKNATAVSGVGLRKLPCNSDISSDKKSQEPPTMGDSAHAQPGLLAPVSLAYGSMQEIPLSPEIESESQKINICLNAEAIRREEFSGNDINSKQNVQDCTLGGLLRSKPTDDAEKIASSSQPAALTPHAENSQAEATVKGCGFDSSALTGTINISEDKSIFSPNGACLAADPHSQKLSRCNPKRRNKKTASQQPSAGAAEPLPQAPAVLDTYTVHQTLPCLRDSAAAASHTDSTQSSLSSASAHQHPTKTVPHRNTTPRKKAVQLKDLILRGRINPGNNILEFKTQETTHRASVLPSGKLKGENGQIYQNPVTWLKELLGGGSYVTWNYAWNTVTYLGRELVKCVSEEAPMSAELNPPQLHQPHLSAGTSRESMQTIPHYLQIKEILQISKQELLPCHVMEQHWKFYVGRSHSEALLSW

Experiments:
[1] = biological target: KISS1 receptor (mouse (endogenous in primary Leydig cells)) (UniProt Q91V45); experiment: co-IP; 500 ug of RIPA lysate of murine primary Leydig cells (untreated, or treated with Kp-10 0.1 uM alone or with Kp-234 1 uM) incubated with 2 ug of KISS1R antibody, ANKRD31 antibody or control IgG overnight at 4 C, Protein A/G PLUS agarose beads, washed in TBS pH 7.6, Western blot for KISS1R, ANKRD31 and F-actin
[2] = biological target: ANKRD31 (mouse (endogenous in primary Leydig cells)); experiment: as above

binding [1] | binding [2] | Substance
binds |  | ANKRD31 (from UniProt A0A140LI88 1-1857)
 | binds | KISS1 receptor (from UniProt Q91V45 1-396)
